From article PMC4476799, “Englerin A Agonizes the TRPC4/C5 Cation Channels to Inhibit Tumor Cell Line Proliferation” (PLoS ONE, 2015)
Further values from the same series stand in other lists.

Test system: cancer cell lines from the cancer cell line encyclopedia (CCLE)
Experiment: Cell line profiling (CLiP) proliferation experiment
Assay type: cell-based
Set-up: ACTIVITY_AREA: scale not given here; AMAX: unit not given here
Description: Compound profiling experiment and data analysis was performed as previously described. Data was imported and plotted using the Tibco Spotfire DXP application. Lines were categorized as sensitive, intermediate and refractory as follows: Amax<-40 & Inflection Point <2 ~ Sensitive, Amax>-20 & Inflection Point >10 ~ Refractory, all else were called Intermediate. Cancer Cell line HG-U133 Plus 2 data was processed and normalized as described. […] Five sets of refractory cell lines were generated from the pool of refractory cell lines trying to match the lineage composition of the set of sensitive cell lines. The limma package was used as previously described to perform the statistical comparison.

[1] = cell line AGS, stomach, adenocarcinoma
[2] = cell line AMO-1, haematopoietic_and_lymphoid_tissue, plasma_cell_myeloma
[3] = cell line AN3 CA, endometrium, adenocarcinoma
[4] = cell line BDCM, haematopoietic_and_lymphoid_tissue, acute_lymphoblastic_B_cell_leukaemia
[5] = cell line BHY, upper_aerodigestive_tract, squamous_cell_carcinoma
[6] = cell line BICR 6, upper_aerodigestive_tract, squamous_cell_carcinoma
[7] = cell line BICR 16, upper_aerodigestive_tract, squamous_cell_carcinoma
[8] = cell line BICR 22, upper_aerodigestive_tract, squamous_cell_carcinoma
[9] = cell line BL-41, haematopoietic_and_lymphoid_tissue, Burkitt_lymphoma
[10] = cell line BT-20, breast, ductal_carcinoma
[11] = cell line BT-549, breast, ductal_carcinoma
[12] = cell line BV-173, haematopoietic_and_lymphoid_tissue, blast_phase_chronic_myeloid_leukaemia
[13] = cell line BxPC-3, pancreas, ductal_carcinoma
[14] = cell line CAL-29, urinary_tract, transitional_cell_carcinoma
[15] = cell line Caki-1, kidney, clear_cell_renal_cell_carcinoma
[16] = cell line Caki-2, kidney, clear_cell_renal_cell_carcinoma
[17] = cell line Caov-3 (ovary, adenocarcinoma)
[18] = cell line DBTRG-05MG (central_nervous_system, astrocytoma_Grade_IV)
[19] = cell line DLD-1 (large_intestine, adenocarcinoma)
[20] = cell line DU 145 (prostate, NS)
[21] = cell line DV-90 (lung, adenocarcinoma)
[22] = cell line EFM-19 (breast, ductal_carcinoma)
[23] = cell line EM-2 (haematopoietic_and_lymphoid_tissue, blast_phase_chronic_myeloid_leukaemia)
[24] = cell line GCT (soft_tissue, NS)
[25] = cell line GI-1 (central_nervous_system, gliosarcoma)
[26] = cell line GOS-3 (central_nervous_system, astrocytoma)
[27] = cell line HARA (lung, squamous_cell_carcinoma)

## CC(C)[C@@]12C[C@@H](O)[C@@](C)(O1)[C@@H]1CC[C@@H](C)[C@H]1[C@@H]2OC(=O)/C=C/c1ccccc1 [Englerin B]
[1]
  AMAX: -69.99
  RESPONSE: INTERMEDIATE
[2]
  ACTIVITY_AREA: 38.41
  AMAX: -82.44
  RESPONSE: INTERMEDIATE
Cell line AN3 CA
  ACTIVITY_AREA: 72.69
  AMAX: -59.95
  RESPONSE: INTERMEDIATE
[3]
  ACTIVITY_AREA: 72.69
  AMAX: -59.95
  RESPONSE: INTERMEDIATE
Cell line AU565, breast, NS
  ACTIVITY_AREA: 45.07
  AMAX: -69.47
  RESPONSE: INTERMEDIATE
[4]
  ACTIVITY_AREA: 30.98
  AMAX: -76.17
  RESPONSE: INTERMEDIATE
Cell line BFTC-909
  ACTIVITY_AREA: 34.39
  AMAX: -23.31
  RESPONSE: INTERMEDIATE
Cell line BFTC-909, kidney, NS
  ACTIVITY_AREA: 34.39
  AMAX: -23.31
  RESPONSE: INTERMEDIATE
[5]
  ACTIVITY_AREA: 30
  AMAX: -53.57
  RESPONSE: INTERMEDIATE
[6]
  ACTIVITY_AREA: 60.16
  AMAX: -61.58
  RESPONSE: INTERMEDIATE
[7]
  ACTIVITY_AREA: 117.1
  AMAX: -74.26
  RESPONSE: INTERMEDIATE
[8]
  ACTIVITY_AREA: 28.9
  AMAX: -66.9
  RESPONSE: INTERMEDIATE
[9]
  ACTIVITY_AREA: 23.12
  AMAX: -91.54
  RESPONSE: INTERMEDIATE
[10]
  ACTIVITY_AREA: 21.1
  AMAX: -41.63
  RESPONSE: INTERMEDIATE
Cell line BT-549
  ACTIVITY_AREA: 85.52
  AMAX: -59.24
  RESPONSE: INTERMEDIATE
[11]
  ACTIVITY_AREA: 85.52
  AMAX: -59.24
  RESPONSE: INTERMEDIATE
[12]
  ACTIVITY_AREA: 54.37
  AMAX: -88.99
  RESPONSE: INTERMEDIATE
[13]
  ACTIVITY_AREA: 22.8
  AMAX: -60.21
  RESPONSE: INTERMEDIATE
Cell line C32, skin, NS
  ACTIVITY_AREA: 19.38
  AMAX: -36.76
  RESPONSE: INTERMEDIATE
[14]
  ACTIVITY_AREA: 38.07
  AMAX: -71.25
  RESPONSE: INTERMEDIATE
Cell line CAL-51, breast, NS
  ACTIVITY_AREA: 23.14
  AMAX: -39.24
  RESPONSE: INTERMEDIATE
Cell line CAL-120, breast, NS
  ACTIVITY_AREA: 23.97
  AMAX: -51.61
  RESPONSE: INTERMEDIATE
Cell line COLO-800 (skin, NS)
  ACTIVITY_AREA: 66.95
  AMAX: -43.63
  RESPONSE: INTERMEDIATE
Cell line COV504 (ovary, NS)
  ACTIVITY_AREA: 33.53
  AMAX: -45.79
  RESPONSE: INTERMEDIATE
[15]
  ACTIVITY_AREA: 27.97
  AMAX: -31.84
  RESPONSE: INTERMEDIATE
[16]
  ACTIVITY_AREA: 52.8
  AMAX: -38.65
  RESPONSE: INTERMEDIATE
Cell line Calu-1
  ACTIVITY_AREA: 52.11
  AMAX: -42.82
  RESPONSE: INTERMEDIATE
[17]
  ACTIVITY_AREA: 128.76
  AMAX: -55.06
  RESPONSE: INTERMEDIATE
[18]
  ACTIVITY_AREA: 21.88
  AMAX: -30.64
  RESPONSE: INTERMEDIATE
[19]
  ACTIVITY_AREA: 71.46
  AMAX: -59.67
  RESPONSE: INTERMEDIATE
Cell line DMS 114
  ACTIVITY_AREA: 21.61
  AMAX: -57.16
  RESPONSE: INTERMEDIATE
Cell line DOHH-2
  ACTIVITY_AREA: 33.67
  AMAX: -98.82
  RESPONSE: INTERMEDIATE
[20]
  ACTIVITY_AREA: 176.13
  AMAX: -54.93
  RESPONSE: INTERMEDIATE
[21]
  ACTIVITY_AREA: 23.59
  AMAX: -71.93
  RESPONSE: INTERMEDIATE
Cell line Detroit 562
  ACTIVITY_AREA: 35.45
  AMAX: -46.18
  RESPONSE: INTERMEDIATE
Cell line EB1
  ACTIVITY_AREA: 13.39
  AMAX: -56.14
  RESPONSE: INTERMEDIATE
Cell line EB2
  ACTIVITY_AREA: 28.45
  AMAX: -57.08
  RESPONSE: INTERMEDIATE
[22]
  ACTIVITY_AREA: 28.98
  AMAX: -31.96
  RESPONSE: INTERMEDIATE
Cell line EFM-192A
  ACTIVITY_AREA: 78.14
  AMAX: -57.28
  RESPONSE: INTERMEDIATE
[23]
  ACTIVITY_AREA: 14.33
  AMAX: -44.27
  RESPONSE: INTERMEDIATE
Cell line EN
  ACTIVITY_AREA: 5.5
  AMAX: -23.22
  RESPONSE: INTERMEDIATE
Cell line ES-2
  ACTIVITY_AREA: 44.96
  AMAX: -44.71
  RESPONSE: INTERMEDIATE
Cell line ESS-1
  ACTIVITY_AREA: 41.09
  AMAX: -72.67
  RESPONSE: INTERMEDIATE
Cell line FU-OV-1
  ACTIVITY_AREA: 158.99
  AMAX: -69.93
  RESPONSE: INTERMEDIATE
Cell line G-361
  ACTIVITY_AREA: 55.99
  AMAX: -32.98
  RESPONSE: INTERMEDIATE
Cell line G-401
  ACTIVITY_AREA: 47.08
  AMAX: -74.97
  RESPONSE: INTERMEDIATE
Cell line GA-10
  ACTIVITY_AREA: 28.18
  AMAX: 8.5
  RESPONSE: REFRACTORY
Cell line GCIY
  ACTIVITY_AREA: 49.94
  AMAX: -70.92
  RESPONSE: INTERMEDIATE
[24]
  ACTIVITY_AREA: 17.95
  AMAX: -52.9
  RESPONSE: INTERMEDIATE
[25]
  ACTIVITY_AREA: 112.12
  AMAX: -25.87
  RESPONSE: INTERMEDIATE
Cell line GMS-10
  ACTIVITY_AREA: 21.47
  AMAX: -32.03
  RESPONSE: INTERMEDIATE
[26]
  ACTIVITY_AREA: 26.28
  AMAX: -31.04
  RESPONSE: INTERMEDIATE
Cell line GP2d
  ACTIVITY_AREA: 32.63
  AMAX: -48.04
  RESPONSE: INTERMEDIATE
Cell line GR-M
  ACTIVITY_AREA: 48.68
  AMAX: -36.64
  RESPONSE: INTERMEDIATE
Cell line GRANTA-519
  ACTIVITY_AREA: 14.82
  AMAX: 16.83
  RESPONSE: REFRACTORY
Cell line H4
  ACTIVITY_AREA: 16.33
  AMAX: -3.42
  RESPONSE: REFRACTORY
[27]
  ACTIVITY_AREA: 73.57
  AMAX: -72.32
  RESPONSE: INTERMEDIATE
Cell line HCC38
  ACTIVITY_AREA: 10.97
  AMAX: -45.93
